# These are yes or no findings as the source states them, for the method shown. Binding calls can cover weak binding; strength is not graded here. Tags and fused reporters may be left off the sequences shown.
# Experiments:
# [1] = molecular target: T1, GST-BUB1^467-521 (UniProt O43683); experiment: SEC
# T1 sequence: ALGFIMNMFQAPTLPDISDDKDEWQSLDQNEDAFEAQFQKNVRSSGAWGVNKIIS
# [2] = molecular target: T1, GST-BUB1^467-521; experiment: pull-down
substance,measurement,setting,value
R^AAZZ (the non-phosphorylatable mutant of RZZ) (complex),binding,[1],binds
same,binding,[2],binds
